Results: PMC9076019, “HSP90 N‐terminal inhibitors target oncoprotein MORC2 for autophagic degradation and suppress MORC2‐driven breast cancer progression” (Clinical and Translational Medicine, 2022)
These are yes or no findings as the source states them, for the method shown. Binding seen in cells or lysates may run through a third protein. Some results given as binding are weak or reduced against the parent protein; the word gives no strength. Tags and fused reporters may be left off the sequences shown.

Target: Full-length Flag-MORC2 (human) (UniProt Q9Y6X9)
Experiment: cross-linking; cytosolic fraction of HEK293T cells transfected with Flag-MORC2 (48 h); chemical cross-linking with 0.05% glutaraldehyde on ice for 5 min; immunoblotting

binding: binds weakly
B1: Full-length Flag-MORC2 (natural protein, human, UniProt Q9Y6X9-1 1-1032, looked up)
chain: MAFTNYSSLNRAQLTFEYLHTNSTTHEFLFGALAELVDNARDADATRIDIYAERREDLRGGFMLCFLDDGAGMDPSDAASVIQFGKSAKRTPESTQIGQYGNGLKSGSMRIGKDFILFTKKEDTMTCLFLSRTFHEEEGIDEVIVPLPTWNARTREPVTDNVEKFAIETELIYKYSPFRTEEEVMTQFMKIPGDSGTLVIIFNLKLMDNGEPELDIISNPRDIQMAETSPEGTKPERRSFRAYAAVLYIDPRMRIFIHGHKVQTKRLSCCLYKPRMYKYTSSRFKTRAEQEVKKAEHVARIAEEKAREAESKARTLEVRLGGDLTRDSRVMLRQVQNRAITLRREADVKKRIKEAKQRALKEPKELNFVFGVNIEHRDLDGMFIYNCSRLIKMYEKVGPQLEGGMACGGVVGVVDVPYLVLEPTHNKQDFADAKEYRHLLRAMGEHLAQYWKDIAIAQRGIIKFWDEFGYLSANWNQPPSSELRYKRRRAMEIPTTIQCDLCLKWRTLPFQLSSVEKDYPDTWVCSMNPDPEQDRCEASEQKQKVPLGTFRKDMKTQEEKQKQLTEKIRQQQEKLEALQKTTPIRSQADLKKLPLEVTTRPSTEEPVRRPQRPRSPPLPAVIRNAPSRPPSLPTPRPASQPRKAPVISSTPKLPALAAREEASTSRLLQPPEAPRKPANTLVKTASRPAPLVQQLSPSLLPNSKSPREVPSPKVIKTPVVKKTESPIKLSPATPSRKRSVAVSDEEEVEEEAERRKERCKRGRFVVKEEKKDSNELSDSAGEEDSADLKRAQKDKGLHVEVRVNREWYTGRVTAVEVGKHVVRWKVKFDYVPTDTTPRDRWVEKGSEDVRLMKPPSPEHQSLDTQQEGGEEEVGPVAQQAIAVAEPSTSECLRIEPDTTALSTNHETIDLLVQILRNCLRYFLPPSFPISKKQLSAMNSDELISFPLKEYFKQYEVGLQNLCNSYQSRADSRAKASEESLRTSERKLRETEEKLQKLRTNIVALLQKVQEDIDINTDDELDAYIEDLITKGD
notes: MORC2, human, full length (residues 1-1032); source: HEK293T, transfected, in cytosolic and nuclear fractions
